PubChem BioAssay AID602196 – INSERM, 2012

- Screen: 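Modifiers of cisplatin sensitivity in A549 cells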
- System: human A549 lung cancer cells
- Reagent: siRNA pair against human genes
- Time to read-out: 48 h transfection before cisplatin; time from cisplatin to read-out not stated
- Challenge: cisplatin at a dose killing half of control-siRNA cells; exact dose and duration not given
- Measured: 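Shift in cisplatin death relative to control siRNA, from -50 (all cells die) to +50 (no cells die); siRNAs harmful on their own scored 0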
- Scale: two-siRNA summed score (-2 to +2): higher = both siRNAs protect from cisplatin killing; -2 means both sensitise; mean protection from cisplatin (shift in death) and protection from cisplatin (shift in death), siRNA C: higher = protection from cisplatin killing
- Call rule: 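Each siRNA scores 0 if harmful alone by LDH or WST-1, otherwise +1 if it reduces and -1 if it increases cisplatin killing; a gene is active when both siRNAs agree (sum +2 or -2)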
- Meaning of the calls: active = both siRNAs shift cisplatin killing the same way; inactive = no consistent shift, or siRNA harmful alone
In all, the deposit lists about 23,000 reagents; shown is a part drawn at random. 455 of them (2%) were called active. 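Active includes both protection and sensitisation; some change values fall well beyond the stated -50 to +50 range.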 Not all columns of the deposit are shown. Not given: the amount of reagent.

no.	target gene	two-siRNA summed score (-2 to +2)	mean protection from cisplatin (shift in death) (%)	protection from cisplatin (shift in death), siRNA C (%)	Outcome
1	ALKAL1	0	3.9	-2.2	inactive
2	NKX2-3	0	-8.4	-6.9	inactive
3	VMAC	1	15.8	15.2	inactive
4	ZNF616	0	6.8	7.8	inactive
5	CD3E	0	8.5	5.4	inactive
6	SLC46A3	0	13.2	15.7	inactive
7	HSF2	0	-8.3	-13.7	inactive
8	C11orf87	0	7.1	7.6	inactive
9	KRTAP17-1	-1	-14.5	-7	inactive
10	LOC441106	1	11.1	14.9	inactive
11	SMIM32	1	26.1	18.8	inactive
12	SLC39A2	0	7	10.1	inactive
13	TSPAN8	0	-3.8	-8.7	inactive
14	LOC401112	0	6.4	6.1	inactive
15	GLRA1	0	-13.4	-2.9	inactive
16	SLC9A6	-1	-8.9	3.8	inactive
17	SAXO4	0	-10.6	-14.7	inactive
18	CTRB1	0	1.1	10.7	inactive
19	OR1M1	0	8.3	4.4	inactive
20	KLB	0	-7.1	-9.5	inactive
21	NEDD4L	0	7.4	5.4	inactive
22	FEN1	-1	-0.3	-13.2	inactive
23	TMPRSS13	0	3	-1.7	inactive
24	PRKCH	0	11	16.8	inactive
25	GTF2H2	0	-1	-1.1	inactive
26	CALHM2	-1	-18	-23.6	inactive
27	TRAPPC3	0	9	1.3	inactive
28	GPR108	0	-3.4	3.5	inactive
29	CCKAR	0	1.8	-0.7	inactive
30	MINAR1	0	6	8.6	inactive
31	GCNT1	-1	-2.6	5.5	inactive
32	MTHFSD	-1	-10.6	-27	inactive
33	LOC201140	1	10.9	-2.9	inactive
34	LOC286441	0	-3.9	-7.6	inactive
35	ERBIN	0	-4.7	-4.8	inactive
36	RAB25	-1	-11.5	-23	inactive
37	MAN2A1	1	4.3	-16.1	inactive
38	THNSL2	0	3.5	-6	inactive
39	STPG2	0	9.2	14.8	inactive
40	STAT1	-1	-7.5	-3	inactive
41	COMP	-1	-11	-17.2	inactive
42	CRLF2	0	2.7	-6.1	inactive
43	SMAD7	0	6.3	11.8	inactive
44	TSACC	-1	-11.2	-9.6	inactive
45	KIAA1833	0	20.8	32.2	inactive
46	JKAMP	0	0.1	-8.3	inactive
47	TBR1	-1	-7.9	5.7	inactive
48	FAM221A	1	14.6	26.2	inactive
49	RFFL	0	-11.9	5	inactive
50	LDB2	-1	-1	8.6	inactive
51	FCGR2A	0	5.8	9.6	inactive
52	LOC442096	0	13.2	4.9	inactive
53	EBI3	0	-1.7	12	inactive
54	MIA	-1	0	24.9	inactive
55	FBN1	0	2	-2.2	inactive
56	SNORC	0	9.9	4.2	inactive
57	HTR3A	0	6.4	1.1	inactive
58	KCNQ2	-1	0.2	16.8	inactive
59	AGAP12P	0	9.6	7.5	inactive
60	SLC5A4	2	16.7	25.1	active
61	NMUR2	0	10	4.2	inactive
62	LOC391738	0	5.6	7.7	inactive
63	LCMT1	1	12.9	7.7	inactive
64	DRC11	0	6.9	-3.8	inactive
65	LOC441905	0	4.1	12.4	inactive
66	PRAF2	1	10.1	12.3	inactive
67	RBCK1	0	-28.1	-34.7	inactive
68	LOC134466	0	-10.8	-7.3	inactive
69	PHF3	0	4.7	-2.4	inactive
70	ITGB8	0	1.9	-7.7	inactive
71	C4orf50	0	-1.8	3.6	inactive
72	RIMOC1	0	12.2	1.2	inactive
73	ZNF764	0	0.8	7.1	inactive
